Among the data in publication PMC10896979 are binding values, retold here.

The chains behind the UniProt entries cited, without tags or fusion partners. Where a name states a change or a piece, a line headed by the entry shows the natural chain unless it says otherwise.
UniProt O35116: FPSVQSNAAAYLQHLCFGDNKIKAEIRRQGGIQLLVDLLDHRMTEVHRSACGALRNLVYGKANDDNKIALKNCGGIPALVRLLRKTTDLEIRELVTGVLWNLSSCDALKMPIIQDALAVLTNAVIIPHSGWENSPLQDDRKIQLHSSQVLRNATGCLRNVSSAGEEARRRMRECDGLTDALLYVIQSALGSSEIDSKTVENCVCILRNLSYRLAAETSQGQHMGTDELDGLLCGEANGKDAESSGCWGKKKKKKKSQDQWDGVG

In one assay the target is T1, PalmD-GFP (UniProt Q9NP74).
T1 sequence: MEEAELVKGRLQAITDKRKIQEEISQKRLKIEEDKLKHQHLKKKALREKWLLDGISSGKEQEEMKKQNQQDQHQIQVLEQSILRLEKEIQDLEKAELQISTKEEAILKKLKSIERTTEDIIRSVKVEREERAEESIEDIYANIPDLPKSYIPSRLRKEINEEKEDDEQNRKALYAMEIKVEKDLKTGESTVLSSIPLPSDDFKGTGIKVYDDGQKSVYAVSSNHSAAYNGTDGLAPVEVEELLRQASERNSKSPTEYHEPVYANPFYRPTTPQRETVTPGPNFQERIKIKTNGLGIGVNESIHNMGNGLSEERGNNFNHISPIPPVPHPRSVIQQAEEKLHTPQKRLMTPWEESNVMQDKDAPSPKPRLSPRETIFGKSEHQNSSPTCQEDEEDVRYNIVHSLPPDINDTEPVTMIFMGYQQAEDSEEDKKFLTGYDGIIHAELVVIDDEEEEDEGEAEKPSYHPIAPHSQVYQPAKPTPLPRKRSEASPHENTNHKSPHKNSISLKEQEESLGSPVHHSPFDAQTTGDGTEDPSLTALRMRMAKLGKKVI
Kind of assay: co-IP; exogenous epitope-tagged constructs co-transfected in HEK293 cells, lysed 24-48 h later; Protein-A and Protein-G Dynabeads, 4°C.

Assay [1] addresses T2, Pdlim5 (endogenous, rat primary neurons) (rat (endogenous in rat primary neurons)) (UniProt Q62920).
T2 sequence: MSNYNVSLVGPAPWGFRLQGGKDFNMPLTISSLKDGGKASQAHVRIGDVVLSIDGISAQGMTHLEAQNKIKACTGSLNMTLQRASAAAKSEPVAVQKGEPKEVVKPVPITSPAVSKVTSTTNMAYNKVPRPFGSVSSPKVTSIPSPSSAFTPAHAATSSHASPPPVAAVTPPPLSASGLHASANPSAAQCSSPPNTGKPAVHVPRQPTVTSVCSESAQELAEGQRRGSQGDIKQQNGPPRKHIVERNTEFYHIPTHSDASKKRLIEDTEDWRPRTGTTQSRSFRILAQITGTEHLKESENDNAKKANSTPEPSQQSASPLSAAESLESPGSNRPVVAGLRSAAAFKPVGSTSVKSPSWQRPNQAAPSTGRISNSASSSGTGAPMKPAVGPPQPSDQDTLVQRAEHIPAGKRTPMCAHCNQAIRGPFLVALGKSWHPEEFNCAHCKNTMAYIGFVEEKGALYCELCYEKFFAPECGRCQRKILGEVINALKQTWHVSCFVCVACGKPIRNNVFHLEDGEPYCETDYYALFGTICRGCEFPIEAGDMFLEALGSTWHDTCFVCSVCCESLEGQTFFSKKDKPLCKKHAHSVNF
The assay can be described thus: proximity ligation; endogenous proteins in rat primary hippocampal neurons fixed at DIV4; Duolink PLA kit; puncta counted in processes.

No constants are given. Whether binding was seen depends on the method and setting. Binding seen in cells or lysates may run through a third protein. A result given as binding can be weak or reduced; the word gives no strength. For some assays here: Sequences can lack the tags named with a protein.

Consider “Pdlim5_isolated LIM domain (from UniProt Q62920) (domain or fragment)”, for which the binding result in the assay with PalmD-GFP is “binds”.
For the substance “delta-catenin (endogenous, rat primary hippocampal neurons) (from UniProt O35116)”, in assay [1], the binding result is listed as “binds”.
